Measured values published in US20240383900A1, “SUBSTITUTED PYRAZOLO [1,5-A]PYRIMIDINE-7-AMINE COMPOUNDS AS CDK INHIBITORS AND THEIR THERAPEUTIC USE” (Carrick Therapeutics Limited, priority 2021, published 2024).

Tested on: A673 cells
Assay: Cytotoxicity in A673 cells (Cell Titer Glo viability)
Type: cell-based
Details: Homo sapiens, read-out: Cellular Potency IC50 (nM) (in A673 cells)
Protocol: Cells were plated in 96-well plates at a density of […] viable cells per well in 200 μL fully supplemented growth medium (DMEM+10% heat inactivated foetal bovine serum) and incubated for 24 hours in standard tissue culture conditions. Compounds, including MLN4924, were solubilised in DMSO and then diluted in fully supplemented growth medium at 2× their final assay concentration such that the final DMSO concentration was 0.1%. Growth medium in the assay plates was replaced with 50 μL of growth medium containing 2×MLN4924 (final assay concentration: 30 nM, where tested) or vehicle only and 50 μL of growth medium containing a 2× compound concentration series or vehicle only such that each compound was at 1× final assay concentration in 100 μL.
Cells were then incubated for 72 hours in standard tissue culture conditions before viability was assessed using 50 μL Cell Titer Glo reagent (Promega) per well and luminescence measured on an EnVision plate reader. Data were normalised to vehicle control (100%) and cells treated with 0.1% Triton x-100 for 1 hour before viability measurement (0%; full cell kill). […] Viability curves generated in the presence of MLN4924 were normalised and fixed to controls treated with MLN4924.

With `CCc1cnn2c(NCc3ccc[n+]([O-])c3)cc(N3CCCC[C@H]3CCO)nc12` [Dinaciclib, reference compound] the IC50 was 4.9 nM.
